Measurements published in patent US20240150495A1.
No constants are given. Whether binding was seen depends on the method and setting. Some entries that bind do so weakly or less than the wild type. One block for each binder: values may come before it.

Biological target: T1, synthetic peptide Rp10-L, a mimotope of B-cell molecular marker CD20
T1 sequence (peptide): ITPWPHWLERSS
Test: ELISA screen on the CD20 mimotope peptide Rp10-L

- binding: binds
B1: CH3 clone C50 (mutated human IgG1 CH3 domain, CH3+3 library) (designed binder, not shown: small tags and cut ends)
chain: MAPREPQVYTLPPSRDELLTHQVSLTCLVKGFYPSDIAVEWESNGQPENNYKTTPPVLDSDGSFFLYSKLTVALCRWFRGWVQGNVFSCSVMHEALHNHYTQKSLSLSPGKAAA

- binding: binds
B2: CH3 clone D5 (mutated human IgG1 CH3 domain, CH3+3 library) (designed binder, not shown: small tags and cut ends)
chain: MAPREPQVYTLPPSRDELALRQVSLTCLVKGFYPSDIAVEWESNGQPENNYKTTPPVLDSDGSFFLYSKLTVFCGGVVRWGLGNVFSCSVMHEALHNHYTQKSLSLSPGKAAA
